Assay results published in publication PMC5095148.
No constants are given. Whether binding was seen depends on the method and setting. In cells and extracts the contact can be indirect. A result given as binding can be weak or reduced; the word gives no strength. For some assays here: Sequences can lack the tags named with a protein.

How the values were obtained:
[1] = target: CSN7A (COP9 signalosome subunit 7A), endogenous (human (endogenous in LiSa‐2)) (UniProt Q9UBW8); assay: co-IP; endogenous CSN complexes immunoprecipitated from LiSa‐2 cell lysates with specific anti‐CSN7A or anti‐CSN7B antibodies (Santa Cruz); western blotting of the precipitates
Flag‐CSN7A (human) = Flag‐CSN7A (human) (UniProt Q9UBW8); assay: pull-down; Flag‐pulldown: lysates of Flag‐CSN7A‐LiSa‐2 or Flag‐CSN7B‐LiSa‐2 cells on an ANTI‐FLAG M2 affinity column, washed with 20 column volumes of 1× TBS (50 mM Tris‐HCl, pH 7.4, 150 mM NaCl, 1 mM EDTA), eluted with Flag peptide (100 μg/mL); western blotting of the eluate

- binding [1]: binds
- binding (Flag‐CSN7A (human)): binds
Substance: F‐box protein β‐TrCP (human (endogenous in LiSa‐2))
